Further values from the same series stand in other lists.
What was measured:
Type in all cases: functional
Candida parapsilosis [1] = test: Increase in CGD gene ortholog accession number orf19.7421 expression in Candida parapsilosis CLIB214 at 50 uM after 2 hrs by microarray based transcriptional profiling relative to control
Candida parapsilosis [2] = test: Increase in CHT1 gene expression in Candida parapsilosis CLIB214 at 50 uM after 2 hrs by microarray based transcriptional profiling relative to control
Candida parapsilosis [3] = test: Reduction in VTC3 gene expression in Candida parapsilosis CLIB214 by RT-PCR
Candida parapsilosis [4] = test: Decrease in CGD gene ortholog accession number orf19.3835 expression in Candida parapsilosis CLIB214 at 50 uM after 2 hrs by microarray based transcriptional profiling relative to control
Candida parapsilosis [5] = test: Decrease in CBF1 gene expression in Candida parapsilosis CLIB214 at 50 uM after 2 hrs by microarray based transcriptional profiling relative to control
Candida parapsilosis [6] = test: Decrease in CGD gene ortholog accession number orf19.894 expression in Candida parapsilosis CLIB214 at 50 uM after 2 hrs by microarray based transcriptional profiling relative to control
Candida parapsilosis [7] = test: Increase in CGD gene ortholog accession number orf19.192 expression in Candida parapsilosis CLIB214 at 50 uM after 2 hrs by microarray based transcriptional profiling relative to control
Candida parapsilosis [8] = test: Decrease in SNQ2 gene expression in Candida parapsilosis CLIB214 at 50 uM after 2 hrs by microarray based transcriptional profiling relative to control
Candida parapsilosis [9] = test: Increase in WRS1 gene expression in Candida parapsilosis CLIB214 at 50 uM after 2 hrs by microarray based transcriptional profiling relative to control
Candida parapsilosis [10] = test: Decrease in CGD gene ortholog accession number orf19.3060 expression in Candida parapsilosis CLIB214 at 50 uM after 2 hrs by microarray based transcriptional profiling relative to control
Candida parapsilosis [11] = test: Increase in SNF1 gene expression in Candida parapsilosis CLIB214 at 50 uM after 2 hrs by microarray based transcriptional profiling relative to control
Candida parapsilosis [12] = test: Decrease in CGD gene ortholog accession number orf19.6816 expression in Candida parapsilosis CLIB214 at 50 uM after 2 hrs by microarray based transcriptional profiling relative to control
Candida parapsilosis [13] = test: Decrease in CGD gene ortholog accession number orf19.4953 expression in Candida parapsilosis CLIB214 at 50 uM after 2 hrs by microarray based transcriptional profiling relative to control
Candida parapsilosis [14] = test: Increase in CGD gene ortholog accession number orf19.1429 expression in Candida parapsilosis CLIB214 at 50 uM after 2 hrs by microarray based transcriptional profiling relative to control
Candida parapsilosis [15] = test: Decrease in AMS1 gene expression in Candida parapsilosis CLIB214 at 50 uM after 2 hrs by microarray based transcriptional profiling relative to control
Candida parapsilosis [16] = test: Increase in GCD1 gene expression in Candida parapsilosis CLIB214 at 50 uM after 2 hrs by microarray based transcriptional profiling relative to control
Candida parapsilosis [17] = test: Decrease in GCV2 gene expression in Candida parapsilosis CLIB214 at 50 uM after 2 hrs by microarray based transcriptional profiling relative to control
Candida parapsilosis [18] = test: Increase in CGD gene ortholog accession number orf19.5318 expression in Candida parapsilosis CLIB214 at 50 uM after 2 hrs by microarray based transcriptional profiling relative to control
Candida parapsilosis [19] = test: Decrease in CGD gene ortholog accession number orf19.6360 expression in Candida parapsilosis CLIB214 at 50 uM after 2 hrs by microarray based transcriptional profiling relative to control
Candida parapsilosis [20] = test: Decrease in TEM1 gene expression in Candida parapsilosis CLIB214 at 50 uM after 2 hrs by microarray based transcriptional profiling relative to control
Candida parapsilosis [21] = test: Increase in CGD gene ortholog accession number orf19.188 expression in Candida parapsilosis CLIB214 at 50 uM after 2 hrs by microarray based transcriptional profiling relative to control
Candida parapsilosis [22] = test: Decrease in CGD gene ortholog accession number orf19.4851 expression in Candida parapsilosis CLIB214 at 50 uM after 2 hrs by microarray based transcriptional profiling relative to control
Candida parapsilosis [23] = test: Decrease in CGD gene ortholog accession number orf19.3649 expression in Candida parapsilosis CLIB214 at 50 uM after 2 hrs by microarray based transcriptional profiling relative to control
Candida parapsilosis [24] = test: Increase in UGT51C1 gene expression in Candida parapsilosis CLIB214 at 50 uM after 2 hrs by microarray based transcriptional profiling relative to control
Candida parapsilosis [25] = test: Decrease in UME6 gene expression in Candida parapsilosis CLIB214 at 50 uM after 2 hrs by microarray based transcriptional profiling relative to control
Candida parapsilosis [26] = test: Increase in GenBank accession number NP_943639.1 expression in Candida parapsilosis CLIB214 at 50 uM after 2 hrs by microarray based transcriptional profiling relative to control
Candida parapsilosis [27] = test: Decrease in GenBank accession number XP_457517.1 expression in Candida parapsilosis CLIB214 at 50 uM after 2 hrs by microarray based transcriptional profiling relative to control
Candida parapsilosis [28] = test: Decrease in PFK1 gene expression in Candida parapsilosis CLIB214 at 50 uM after 2 hrs by microarray based transcriptional profiling relative to control
Candida parapsilosis [29] = test: Decrease in CGD gene ortholog accession number orf19.6171 expression in Candida parapsilosis CLIB214 at 50 uM after 2 hrs by microarray based transcriptional profiling relative to control
Candida parapsilosis [30] = test: Increase in CGD gene ortholog accession number orf19.4963 expression in Candida parapsilosis CLIB214 at 50 uM after 2 hrs by microarray based transcriptional profiling relative to control
Candida parapsilosis [31] = test: Increase in CGD gene ortholog accession number orf19.2367 expression in Candida parapsilosis CLIB214 at 50 uM after 2 hrs by microarray based transcriptional profiling relative to control
Candida parapsilosis [32] = test: Increase in CGD gene ortholog accession number orf19.5897 expression in Candida parapsilosis CLIB214 at 50 uM after 2 hrs by microarray based transcriptional profiling relative to control
Candida parapsilosis [33] = test: Increase in ERG6 gene expression in Candida parapsilosis CLIB214 at 50 uM after 2 hrs by microarray based transcriptional profiling relative to control
Candida parapsilosis [34] = test: Increase in GenBank accession number NP_943649.1 expression in Candida parapsilosis CLIB214 at 50 uM after 2 hrs by microarray based transcriptional profiling relative to control
Candida parapsilosis [35] = test: Decrease in ERG9 gene expression in Candida parapsilosis CLIB214 at 50 uM after 2 hrs by microarray based transcriptional profiling relative to control
Candida parapsilosis [36] = test: Increase in CGD gene ortholog accession number orf19.4243 expression in Candida parapsilosis CLIB214 at 50 uM after 2 hrs by microarray based transcriptional profiling relative to control
Candida parapsilosis [37] = test: Decrease in CGD gene ortholog accession number orf19.5586 expression in Candida parapsilosis CLIB214 at 50 uM after 2 hrs by microarray based transcriptional profiling relative to control

Q: For `CC(C)=CCC/C(C)=C/CC/C(C)=C/CO` [FARNESOL], which “fold change (FC)” value (Candida parapsilosis [1]) is on record?
A: The value was 1.56.

Q: What about the “fold change (FC)” value (Candida parapsilosis [2]) of the same compound?
A: The value was 1.55.

Q: And the “fold change (FC)” value (Candida parapsilosis [3])?
A: Its value is 1.52.

Q: What about the “fold change (FC)” value (Candida parapsilosis [4]) of the same compound?
A: Its value is 1.82.

Q: And the “fold change (FC)” value (Candida parapsilosis [5])?
A: The value was 1.5.

Q: What about the “fold change (FC)” value (Candida parapsilosis [6]) of the same compound?
A: The value was 1.69.

Q: And the “fold change (FC)” value (Candida parapsilosis [7])?
A: Its value is 1.58.

Q: And the “fold change (FC)” value (Candida parapsilosis [8])?
A: Its value is 2.34.

Q: And the “fold change (FC)” value (Candida parapsilosis [9])?
A: The value was 1.51.

Q: What about the “fold change (FC)” value (Candida parapsilosis [10]) of the same compound?
A: Its value is 1.54.

Q: And the “fold change (FC)” value (Candida parapsilosis [11])?
A: Its value is 1.57.

Q: And the “fold change (FC)” value (Candida parapsilosis [12])?
A: The value was 2.36.

Q: What about the “fold change (FC)” value (Candida parapsilosis [13]) of the same compound?
A: Its value is 1.75.

Q: And the “fold change (FC)” value (Candida parapsilosis [14])?
A: Its value is 1.7.

Q: What about the “fold change (FC)” value (Candida parapsilosis [15]) of the same compound?
A: Its value is 1.66.

Q: And the “fold change (FC)” value (Candida parapsilosis [16])?
A: Its value is 1.73.

Q: And the “fold change (FC)” value (Candida parapsilosis [17])?
A: The value was 1.61.

Q: What about the “fold change (FC)” value (Candida parapsilosis [18]) of the same compound?
A: Its value is 1.75.

Q: And the “fold change (FC)” value (Candida parapsilosis [19])?
A: Its value is 2.48.

Q: What about the “fold change (FC)” value (Candida parapsilosis [20]) of the same compound?
A: The value was 1.64.

Q: What about the “fold change (FC)” value (Candida parapsilosis [21]) of the same compound?
A: Its value is 1.55.

Q: What about the “fold change (FC)” value (Candida parapsilosis [22]) of the same compound?
A: Its value is 1.78.

Q: And the “fold change (FC)” value (Candida parapsilosis [23])?
A: Its value is 1.54.

Q: And the “fold change (FC)” value (Candida parapsilosis [24])?
A: The value was 1.51.

Q: What about the “fold change (FC)” value (Candida parapsilosis [25]) of the same compound?
A: Its value is 1.99.

Q: What about the “fold change (FC)” value (Candida parapsilosis [26]) of the same compound?
A: Its value is 2.63.

Q: And the “fold change (FC)” value (Candida parapsilosis [27])?
A: The value was 1.86.

Q: What about the “fold change (FC)” value (Candida parapsilosis [28]) of the same compound?
A: The value was 1.75.

Q: What about the “fold change (FC)” value (Candida parapsilosis [29]) of the same compound?
A: The value was 1.6.

Q: What about the “fold change (FC)” value (Candida parapsilosis [30]) of the same compound?
A: The value was 1.82.

Q: What about the “fold change (FC)” value (Candida parapsilosis [31]) of the same compound?
A: The value was 1.63.

Q: And the “fold change (FC)” value (Candida parapsilosis [32])?
A: Its value is 1.61.

Q: And the “fold change (FC)” value (Candida parapsilosis [33])?
A: The value was 1.93.

Q: What about the “fold change (FC)” value (Candida parapsilosis [34]) of the same compound?
A: The value was 2.61.

Q: And the “fold change (FC)” value (Candida parapsilosis [35])?
A: The value was 1.58.

Q: What about the “fold change (FC)” value (Candida parapsilosis [36]) of the same compound?
A: The value was 1.88.

Q: And the “fold change (FC)” value (Candida parapsilosis [37])?
A: The value was 1.75.

— ChEMBL document CHEMBL1157379, “Transcriptional response of Candida parapsilosis following exposure to farnesol” (2007)
